Assay results from paper PMC12040169 (PLOS Biology, 2025).
This is one part of the list.

system: T1, CTL2-GFP (C. trachomatis L2/434/Bu, GFP-expressing); parameters: species or system HeLa; Intracellular C. trachomatis growth in HeLa cells, bulk GFP fluorescence relative to DMSO; conditions: bulk GFP, single well; 28.5 h, 10 µM; inhibitor
T1 construct: L2/434/Bu, GFP-expressing

| SMILES | % of control remaining [%] |
| --- | --- |
| FC(F)(F)c1nnc2ccc(N3CCN(Cc4ccsc4)CC3)nn12 [CBK305930] | 101.826 |
| O=C(Nc1ccc(Cc2ccncc2)cc1)c1cc([N+](=O)[O-])n[nH]1 [CBK269157] | 124.304 |
| O=C(O)/C=C\C(=O)Nc1cccc(NC(=O)c2cccs2)c1 [CBK263952] | 100 |
| CCn1c2cc(C)oc2c2cnn(CC(=O)N(C)C)c(=O)c21 [CBK284224] | 127.566 |
| Cc1nc(-c2ccccc2)sc1CNC(=O)C(C)c1ccc([N+](=O)[O-])cc1 (stereo not shown) [CBK092364] | 71.7798 |
| Cn1cccc1CN1C[C@H]2CC[C@]3(NC(=O)c4ccccc4N3)[C@H]2C1 [CBK284443] | 124.697 |
| O=C(c1cccc(C(=O)N(Cc2ccccc2)c2ccccn2)c1)N(Cc1ccccc1)c1ccccn1 [CBK091794] | 91.6111 |
| Cc1ccc(NC(=O)c2ccccc2)s1 [CBK086724] | 105.564 |
| Cc1cc(C)nc(NS(=O)(=O)c2ccc(OC(F)(F)F)cc2)c1 [CBK044711] | 135.111 |
| CCC(CC)C(=O)Nc1nc(OC)cnc1-c1ccc(OCOC)cc1 [CBK145207] | 101.757 |
| c1ccc(Nc2cncc(N3CCNCC3)n2)cc1 [CBK013389] | 90.94 |
| COc1ccc(N2CCN(/C(=N\S(=O)(=O)c3ccc(C)cc3)Nc3nc(C)cc(C)n3)CC2)cc1 [CBK266564] | 142.788 |
| Cn1cc(C(=O)N2CCCC3(C/C=C/COc4ccccc4C(=O)NCCNC3=O)C2)cn1 (stereo not shown) [CBK292102] | 146.865 |
| Cn1nc(C2CC2)cc1C(=O)NCCN1CCc2ccccc21 [CBK282138] | 106.8 |
| Cc1nc(=O)c(-c2ccccc2)c(C)n1CCCCCC(=O)O [CBK287060] | 117.744 |
| O=C(Cn1cccc(C(=O)NC2CCCCC2)c1=O)NCC1(c2ccccc2Cl)CC1 [CBK286054] | 142.743 |
| COC[C@@H]1CCCN1S(=O)(=O)c1cccs1 [CBK045239] | 150.776 |
| CCN(C(=O)c1cnc2n(c1=O)CCS2)c1ccccc1 [CBK287384] | 106.651 |
| OCC1CCN(Cc2cnn(C3CCCCC3)c2)C1 (stereo not shown) [CBK283086] | 137.608 |
| O=C(Cn1ccc2ccnc(-c3cccs3)c21)N1CCNCC1 [CBK284733] | 127.321 |
| Cc1nn(-c2ccccc2)c2sncc12 [CBK006869] | 92.4224 |
| CCCC/C=C/c1cn2ccnc2c(Nc2ccc(OC)nc2)n1 [CBK038089] | 156.473 |

For reference, part of the list above.

| SMILES | % of control remaining [%] |
| --- | --- |
| c1ccc(Nc2cncc(N3CCNCC3)n2)cc1 [CBK013389] | 90.94 |
| COc1ccc(N2CCN(/C(=N\S(=O)(=O)c3ccc(C)cc3)Nc3nc(C)cc(C)n3)CC2)cc1 [CBK266564] | 142.788 |
| Cn1cc(C(=O)N2CCCC3(C/C=C/COc4ccccc4C(=O)NCCNC3=O)C2)cn1 (stereo not shown) [CBK292102] | 146.865 |
| Cn1nc(C2CC2)cc1C(=O)NCCN1CCc2ccccc21 [CBK282138] | 106.8 |
| Cc1nc(=O)c(-c2ccccc2)c(C)n1CCCCCC(=O)O [CBK287060] | 117.744 |
